From US20190225942
For some of these results: A negative result means that nothing was seen under these conditions. For some of these results: Construct, isoform or probe ends are uncertain for at least one entry.

Amino acid sequences for entries named in this document (tags omitted). Residues count along the entry.
UniProt P12830, 155-882: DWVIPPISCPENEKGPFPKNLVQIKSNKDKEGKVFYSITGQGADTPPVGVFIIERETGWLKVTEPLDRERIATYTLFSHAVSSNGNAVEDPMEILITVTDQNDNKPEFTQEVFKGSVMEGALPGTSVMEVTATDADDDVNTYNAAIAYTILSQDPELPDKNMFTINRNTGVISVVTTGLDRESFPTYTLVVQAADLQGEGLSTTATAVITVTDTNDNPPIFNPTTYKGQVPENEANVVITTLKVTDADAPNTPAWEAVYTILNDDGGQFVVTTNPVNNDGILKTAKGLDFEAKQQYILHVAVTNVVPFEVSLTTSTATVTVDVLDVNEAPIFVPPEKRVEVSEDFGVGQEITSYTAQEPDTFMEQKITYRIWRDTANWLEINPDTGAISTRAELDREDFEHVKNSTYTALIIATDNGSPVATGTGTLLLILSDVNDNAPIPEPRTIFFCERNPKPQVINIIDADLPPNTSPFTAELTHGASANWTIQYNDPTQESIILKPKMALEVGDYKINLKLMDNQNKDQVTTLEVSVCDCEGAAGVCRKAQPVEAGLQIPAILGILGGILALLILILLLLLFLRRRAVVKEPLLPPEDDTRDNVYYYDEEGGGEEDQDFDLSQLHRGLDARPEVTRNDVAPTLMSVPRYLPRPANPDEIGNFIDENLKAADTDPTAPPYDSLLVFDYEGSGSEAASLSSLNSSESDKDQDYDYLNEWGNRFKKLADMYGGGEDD
UniProt P12830, 155-707, stated change not applied: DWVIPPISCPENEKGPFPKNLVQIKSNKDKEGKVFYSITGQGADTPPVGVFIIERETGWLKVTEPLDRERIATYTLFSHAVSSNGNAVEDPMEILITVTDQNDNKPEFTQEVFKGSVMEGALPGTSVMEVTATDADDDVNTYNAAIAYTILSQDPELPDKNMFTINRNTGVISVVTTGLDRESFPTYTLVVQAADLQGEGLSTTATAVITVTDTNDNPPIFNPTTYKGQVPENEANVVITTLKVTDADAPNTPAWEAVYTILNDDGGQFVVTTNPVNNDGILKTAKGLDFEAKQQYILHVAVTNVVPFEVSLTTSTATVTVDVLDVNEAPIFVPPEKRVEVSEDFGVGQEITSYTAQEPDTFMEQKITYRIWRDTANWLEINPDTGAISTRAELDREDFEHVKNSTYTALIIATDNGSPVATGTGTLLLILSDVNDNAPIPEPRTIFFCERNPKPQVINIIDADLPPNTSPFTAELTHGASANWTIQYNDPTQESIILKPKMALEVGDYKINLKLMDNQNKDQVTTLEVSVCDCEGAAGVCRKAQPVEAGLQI

What was measured:
[1] = molecular target: E-cadherin (on A549 cells) (UniProt P12830); experiment: activity in cells; details: biotin, protein on the cell surface, single-stranded DNA
IgG-Fc = experiment: SPR; details: immobilised on SPR chip; IgG-Fc control, no response change; DPBST pH 7.4; purified recombinant protein; protein details: control Fc; single-stranded DNA
[2] = molecular target: E-cadherin extracellular domain-Fc chimera (Homo sapiens) (UniProt P12830); experiment: SPR; details: immobilised on SPR chip; Kd analysed from bio-dT44-subtracted sensorgrams but value not given; DPBST pH 7.4, 0.05% Tween 20; purified recombinant protein; protein details: IgG Fc fusion, R&D Systems 648-EC-100; single-stranded DNA

TTTTTTTTTTTTTTTTTTTTTTTTTTTTTTTTTTTTTTTTTTTT [Bio-T44 (bio-dT44)]
functional effect of the aptamer ([1]; A549 cells detached from Bio-T44-coated plate by 1 mM EDTA wash): not active

GGGGTGGTGGGGGATACTGTGGGGGTGGTGGGCT [EBA (E-cadherin binding aptamer)]
binding result (IgG-Fc): no binding | binding result [2]: binds

TTTTTTTTTTGGGGTGGTGGGGGATACTGTGGGGGTGGTGGGCT [Bio-T10-EBA]
functional effect of the aptamer ([1]; T10 linker, A549 cells stay adhered to aptamer-coated plate after 1 mM EDTA wash, whole-cell adhesion, E-cadherin not isolated, variant of EBA (E-cadherin binding aptamer)): active
